Measured values published in the supplement of paper PMC7125110.
± gives the standard error. The uncertainty is large for many entries.

B1: glmS ribozyme (parent)
chain: AUAAAAGCGCCAGAACUACAGAAAUGUAGUUGACGAGGAGGAGGUUUAUCGAAUUUUCGGCGGAUGCCUCCAAA

Variants of: B1
Test: self-cleavage kobs at 160 uM GlcN6P; higher = faster cleavage; RNA array
Conditions: with glucosamine-6-phosphate
How it was run: (§1)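 kobs was derived by fitting per-tile medians to one- or two-exponential decays after normalising signals to baseline and to non-cleaving reference variants. Those signals came from barcoded ribozyme variants transcribed in situ by E. coli RNA polymerase on sequenced MiSeq chips, followed through a hybridised Cy3 probe at 37 °C and imaged over ~14 h. Glucosamine-6-phosphate (40 μM to 10 mM) in HEPES/KCl/Mg(OAc)2 buffer was flowed in. Weighted Michaelis–Menten fits across concentrations then gave kcat and KM.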

Variant	self-cleavage kobs at 160 uM GlcN6P [s⁻¹]
AUAAAAGCGUCAGAACUACAGAAAUGUAGUUGACGAGGAGGAGGUUUAUGGAAUUUUCGGCGUAUGCCUCCAAA [C10U C50G G63U]	2.59e-05 ± 1.5e-05
AUAAAAGCGCAAGAACUACAGAAAUGUAGUUGACGAGGAGGAGGUUUAUCGAAUUUUCGGCGGAUGCCUACAAA [C11A C70A]	0.000485 ± 0.0003
AUAAAAGCGCCAGUACUACAGAAAUGUAGUUGACGAGGAGGAGGUUUAUCGAAUUUUCGGCGGAUGCGUCCAAA [A14U C68G]	1.84e-05 ± 1.8e-05
AUAAAAGCGCCAGAACUACAGAAAUGUACUUGACGAGGAGGAGGUUUAUCGAAUUUUCGGCGGAUGUCUCCAAA [G29C C67U]	0.00251 ± 0.0013
AUAAAAGCGCCAGAACUACAGAAAUGUAGUGGACGAGGAGGAGGUUUAUCGAAUUUUCGGCGGAUGCAUCCAAA [U31G C68A]	2.12e-05 ± 1.7e-05
AUAAAAGCGCCGGAACUACAGAAAUGUAGUUGACGAGGAGGAGGUUUAUCGACUUUUCGGCGGAUGCCUCCAAA [A12G A53C]	1.45e-05 ± 1.4e-05
AUAAAAGCGCUAGAACUACAGAAAUGUAGUUGACGAGGAGGAGGUUUAUCGAAUUUUCGGCGGAUACCUCCAAA [C11U G66A]	3.42e-05 ± 2.2e-05
AUAAAAGCGCCAGAAUUACAGAAAUGUAGUUGACGAGGAGGAGGUUUAUCGAAUUUUCGGCGUAUGCCUGCAAA [C16U G63U C70G]	3.73e-05 ± 2.5e-05
AUAAAAGCGCCAGAAAUACAGAAAUGUAGUUGACGAGGAGGAGGUUUAUCGAAUUGUCGGCGGAGGCCUCCAAA [C16A U56G U65G]	3.52e-05 ± 2.6e-05
AUAAAAGCGCCUGAACUACAGAAAUGUAGUUGACGAGGGGGAGGUUGAUCGAAAUUUCGGCGGAUGCCACCAAA [A12U A39G U47G U54A U69A]	3.47e-05 ± 2.4e-05
AUAAAAGCGCCAGAAUUACAGAAAUGUAGUUGACGAGGAGGAGGUUUUUCGAAUUUUCGGCGGAUGCCUCCAAA [C16U A48U]	2.52e-05 ± 1.5e-05
AUAAAAGCGCCAGCACUACAGAAAUGUAGUUGACGAGGAGGAGGUUUAUCGAAUUUUCGGCGGAAGCCUCCAAA [A14C U65A]	2.67e-05 ± 1.7e-05
AUAAAAGCGUCAGUAUUACAGAAAUGUAGUUGACGAGGAGGAGGUUUAUCGAAUUUUCGGCGGAUGCGUCCAAA [C10U A14U C16U C68G]	6.74e-05 ± 3.9e-05
AUAAAAGCGCUAGAACUACAGAAAUGUAGAUGAUGGGGAGGAGGUUUAUCGAAUUUUCGGCGGAUGCCACCAAA [C11U U30A C34U A36G U69A]	3.87e-05 ± 2e-05
AUAAAAGCGCCAGAACUACAGAAAUGUAGAUGACGAGGAGGAGGUUUAUCGAAUUUUCGGCGGAUGCCAGCAAA [U30A U69A C70G]	3.54e-05 ± 2.4e-05
AUAAAAGCGCCGGAACUACAGAAAUGUAGUUGACGAUGAGGAGGUUUAUCGAAUUUUCGGCGGAUGCCUGGAAA [A12G G37U C70G C71G]	2.87e-05 ± 2.3e-05
AUAAAAGCGCCCGAACUACAGAAAUGUAGUUGACGAGGAGGAGGUUUAUCGAAUUUUCGGCGGAUGCCACCAAA [A12C U69A]	3.65e-05 ± 2.4e-05
AUAAAGGCGCCAGAACUACAGAAAUGUAGUUGACGAGGAGGAGGUUUAUCGAAGUUUCGGCGGAUGCCUCCAAA [A6G U54G]	4.08e-05 ± 2.2e-05
AUAAAAGCGCCAGAACUACAGAAAUGUACUUGACGAGGAGGAGGUUUAUCGGAUUUUCGGCGGAUGCCUCCAAA [G29C A52G]	2.19e-05 ± 1.8e-05
AUAAAAGCGCCAGACCUACAGAAAUGUAGUUGACGAGGAGUAGGUUUAUCGAAUUUUCGGCGGAUGCCUCCAAA [A15C G41U]	2.25e-05 ± 1.7e-05
AUAAAAGCGCAAGAACUACAGAAAUGUAGUUGACGAGUAGGAGGUUUAUCGAAUUUUCGGCGGAUGGUUCCAAA [C11A G38U C67G C68U]	0.000391 ± 0.0002
AUAAAAGCGCCAGAACUACAGAAAUGUACUUGACGAGGAGGAGGUUUAUCGAAUUUUCGGCGGAUGCCUGCAAA [G29C C70G]	2.68e-05 ± 1.8e-05

6 consecutive entries already listed, for reference:
Variant	self-cleavage kobs at 160 uM GlcN6P [s⁻¹]
AUAAAAGCGUCAGUAUUACAGAAAUGUAGUUGACGAGGAGGAGGUUUAUCGAAUUUUCGGCGGAUGCGUCCAAA [C10U A14U C16U C68G]	6.74e-05 ± 3.9e-05
AUAAAAGCGCUAGAACUACAGAAAUGUAGAUGAUGGGGAGGAGGUUUAUCGAAUUUUCGGCGGAUGCCACCAAA [C11U U30A C34U A36G U69A]	3.87e-05 ± 2e-05
AUAAAAGCGCCAGAACUACAGAAAUGUAGAUGACGAGGAGGAGGUUUAUCGAAUUUUCGGCGGAUGCCAGCAAA [U30A U69A C70G]	3.54e-05 ± 2.4e-05
AUAAAAGCGCCGGAACUACAGAAAUGUAGUUGACGAUGAGGAGGUUUAUCGAAUUUUCGGCGGAUGCCUGGAAA [A12G G37U C70G C71G]	2.87e-05 ± 2.3e-05
AUAAAAGCGCCCGAACUACAGAAAUGUAGUUGACGAGGAGGAGGUUUAUCGAAUUUUCGGCGGAUGCCACCAAA [A12C U69A]	3.65e-05 ± 2.4e-05
AUAAAGGCGCCAGAACUACAGAAAUGUAGUUGACGAGGAGGAGGUUUAUCGAAGUUUCGGCGGAUGCCUCCAAA [A6G U54G]	4.08e-05 ± 2.2e-05

Variants of: B1
Test: self-cleavage kobs at 2500 uM GlcN6P; higher = faster cleavage; RNA array
Conditions: with glucosamine-6-phosphate
How it was run: as §1

Variant	self-cleavage kobs at 2500 uM GlcN6P [s⁻¹]
AUAAAAGCGUCAGAACUACAGAAAUGUAGUUGACGAGGAGGAGGUUUAUGGAAUUUUCGGCGUAUGCCUCCAAA [C10U C50G G63U]	3.5e-05 ± 3e-05
AUAAAAGCGCAAGAACUACAGAAAUGUAGUUGACGAGGAGGAGGUUUAUCGAAUUUUCGGCGGAUGCCUACAAA [C11A C70A]	2.75e-05 ± 1.7e-05
AUAAAAGCGCCAGAACUACAGAAAUGUAGUUGACGAGGAGGAGGUUUAUCGAAUUUUCGGCGGAUGUCUACAAA [C67U C70A]	1.98e-05 ± 1.2e-05
AUAAAAGCGCUAGAACUACAGAAAUGUAGAUGAUGGGGAGGAGGUUUAUCGAAUUUUCGGCGGAUGCCACCAAA [C11U U30A C34U A36G U69A]	4.79e-05 ± 2.5e-05
AUAAAAGCGCCAGAACUACAGAAAUGUAGAUGACGAGGAGGAGGUUUAUCGAAUUUUCGGCGGAUGCCAGCAAA [U30A U69A C70G]	2.98e-05 ± 2.4e-05
AUAAAAGCGCCAGAACUACAGAAAUGUAGUUGACGAGGAGGAGGUUUAUCGAAUUUUCGGCGGUUGCCUCGAAA [A64U C71G]	2.15e-05 ± 1.4e-05

Variants of: B1
Test: self-cleavage kobs at 10000 uM GlcN6P; higher = faster cleavage; RNA array
Conditions: with glucosamine-6-phosphate
How it was run: as §1

Variant	self-cleavage kobs at 10000 uM GlcN6P [s⁻¹]
AUAAAAGCGCAAGAACUACAGAAAUGUAGUUGACGAGGAGGAGGUUUAUCGAAUUUUCGGCGGAUGCCUACAAA [C11A C70A]	2.05e-05 ± 1.4e-05
AUAAAAGCGCCAGUACUACAGAAAUGUAGUUGACGAGGAGGAGGUUUAUCGAAUUUUCGGCGGAUGCGUCCAAA [A14U C68G]	1.43e-05 ± 1.3e-05
AUAAAAGCGCCAGAACUACAGAAAUGUAGUGGACGAGGAGGAGGUUUAUCGAAUUUUCGGCGGAUGCAUCCAAA [U31G C68A]	1.88e-05 ± 1.2e-05
AUAAAAGCGCCAGAACUACAGAAAUGUAGUUGACGAGGAGGAGGUUUAUCGAAUUUUCGGCGGUUGCCUCGAAA [A64U C71G]	1.79e-05 ± 1.1e-05
AUAAAAGCGCCAGAACUACAGAAAUGUAGUUGACGAGGAGGAGGUUUAUCGAAUUUUCGGCGGAUGCUGCCAAA [C68U U69G]	1.65e-05 ± 1.1e-05

Variants of: B1
Test: self-cleavage kobs at 640 uM GlcN6P; higher = faster cleavage; RNA array
Conditions: with glucosamine-6-phosphate
How it was run: as §1

Variant	self-cleavage kobs at 640 uM GlcN6P [s⁻¹]
AUAAAAGCGCCAGAACUACAGAAAUGUAGUUGACGAGGAGGAGGUUUAUCGAAUUUUCGGCGGAUGUCUACAAA [C67U C70A]	1.82e-05 ± 1.2e-05
AUAAAAGCGCCAGAACUACAGAAAUGUAGUUGACGAGGAGGAGGUUUAUCGAAUUUUCGGCGGAUGCCAGCAAA [U69A C70G]	3.38e-05 ± 1.8e-05
AUAAAAGCGCCAGAACUACAGAAAUGUAGUUGACGAGGAGGAGGUUUAUCGAAUUUUCGGCGGGUGCUUCCAAA [A64G C68U]	1.79e-05 ± 1.4e-05
AUAAAAGCGCCAGAACUACAGAAAUGUAGUUGACGAGGAGGAGGUUUAUCGAAUUUUCGGCGGUUGCCUCGAAA [A64U C71G]	1.88e-05 ± 1.6e-05
AUAAAAGCGCCAGAACUACAGAAAUGUAGUUGACGAGGAGGAGGUUUAUCGAAUUUUCGGCGGAUGCUGCCAAA [C68U U69G]	2.65e-05 ± 1.6e-05
